The text below walks through data of publication PMC8591804.

The assay has as its target T1, STOML2 in 293 T cells (co-immunoprecipitation with DTYMK) (human) (UniProt Q9UJZ1).
T1 sequence: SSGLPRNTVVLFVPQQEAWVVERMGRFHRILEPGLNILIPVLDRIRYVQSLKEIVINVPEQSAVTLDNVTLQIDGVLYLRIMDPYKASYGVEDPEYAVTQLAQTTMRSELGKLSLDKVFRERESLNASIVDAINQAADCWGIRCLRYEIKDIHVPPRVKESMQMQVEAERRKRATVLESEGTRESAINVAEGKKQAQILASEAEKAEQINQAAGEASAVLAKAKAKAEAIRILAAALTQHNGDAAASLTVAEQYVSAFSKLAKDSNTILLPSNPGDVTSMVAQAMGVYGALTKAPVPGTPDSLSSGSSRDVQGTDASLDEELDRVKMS
Briefly: co-IP; lysate of 293 T cells; protein-A Sepharose beads with anti-His, anti-PHB or anti-SLP2 antibody as indicated, 4 °C overnight, anti-IgG as control; western blotting. In general terms: In western blotting, separated proteins are transferred to a membrane and probed.

These are yes or no findings as the source states them, for the method shown. In cells and extracts the contact can be indirect.

B1: DTYMK in 293 T cells (co-immunoprecipitation with STOML2) (protein, UniProt P23919 1-212)
chain: MAARRGALIVLEGVDRAGKSTQSRKLVEALCAAGHRAELLRFPERSTEIGKLLSSYLQKKSDVEDHSVHLLFSANRWEQVPLIKEKLSQGVTLVVDRYAFSGVAFTGAKENFSLDWCKQPDVGLPKPDLVLFLQLQLADAAKRGAFGHERYENGAFQERALRCFHQLMKDTTLNWKMVDASKSIEAVHEDIRVLSEDAIRTATEKPLGELWK
Consider B1, for which the binding entry was “no binding”.
